57 compounds from PubChem BioAssay AID2685 (National Center for Advancing Translational Sciences (NCATS), 2010) can be followed below.

This assay is described as follows: qHTS Assay for Lipid Storage Modulators in Drosophila S3 Cells.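 For cell number change: cells counted by Cell Tracker Red CMTPX staining in the red channel.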 The conditions noted are these: BODIPY lipid droplet fluorescence, 18-24 h; for cell number change: measured here: cell count max response, cells fed with added oleic acid. In a few lines: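 Drosophila S3 cells got compounds at several concentrations plus oleic acid (400 uM solution). Laser-scanning cytometry with 488 nm excitation read lipid droplets at 500-530 nm and cells at 575-640 nm. Percent activity was relative to 20 uM Triacsin C.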

Where [1] appears, read: measured here: cell number channel AC50, cells fed with added oleic acid.
Where [2] appears, read: measured here: lipid fluorescence (Fed channel) AC50, cells fed with added oleic acid.

The other results are listed elsewhere or left out. Shown are side measurements of this screen, not its main read-out; they come without a call. Most of these compounds were active or inconclusive in the main read-out, so they are no random draw. Words in brackets tell the shape of the fitted curve; partial curves, single points and poor fits give uncertain potencies. Where a SMILES comes first, the peptide text is derived from it. The star is where a group is joined. Bz = O=C(c1ccccc1)*

Consider `COc1cccc(OC)c1OCCOCCn1cnc2ccccc2c1=O`, for which the cell number change was determined as 6.6%.
In general, AC50 refers to the concentration giving half of the maximal activity seen. For `Cn1cnc([N+](=O)[O-])c1Sc1ncn[nH]1`, the cell number change stood at 8.45%. In addition, the AC50 under setting [1] is 6.51 µM [rising, single point]. The AC50 under setting [2] is 6.51 µM [rising, partial curve, poor fit].
On to `Cc1nc(C)c(C(=O)Nc2cccc(C)c2C)s1`, for which the cell number change was -1.42%.
In the case of `Cc1cc(C(=O)N/N=C/c2cc(Br)cc([N+](=O)[O-])c2O)c2ccccc2n1`, the cell number change was -12.7%. In addition, the AC50 under setting [2] is 29.1 µM [rising, single point].
Take `CCC(=O)Nc1nc2c(s1)COc1ccccc1-2`: the AC50 under setting [2] was 0.116 µM [falling, full curve, poor fit].
Take `COCCN(CC(=O)Nc1cccc(C)c1C)C(=O)c1cc(-c2ccncc2)nc2ccccc12`: the cell number change was -0.752%. The AC50 under setting [2] is 3.66 µM [rising, partial curve, poor fit].
With `Cc1ccc(C2=NS(=O)(=O)N(C)C(C(=O)NCc3ccco3)=C2)cc1`, the cell number change came out at 4.48%.
In the case of `NC(=O)c1ccccc1NC(=O)c1cc(S(=O)(=O)N2CCCCC2)ccc1N1CCOCC1`, the cell number change was found to be 4.64%. Moreover, the AC50 under setting [1] was 0.651 µM [falling, single point]. Further, the AC50 under setting [2] was 0.58 µM [falling, single point].
As to `CCCCOc1ccc(OC(=O)c2cccnc2)cc1`, the cell number change was -43.9%. In addition, under setting [1], the AC50 is 29.1 µM [falling, single point]. Further, the AC50 under setting [2] was 14.6 µM [falling, partial curve, poor fit].
For `Cc1nc(C)c(C(=O)N2CCCC(C(=O)c3cc(F)ccc3F)C2)s1` (stereo unspecified), the cell number change was -12.7%. The AC50 under setting [2] is 4.11 µM [falling, single point].
For `Cc1ccccc1N=Cc1cc2c(cc1[N+](=O)[O-])OCO2`, the cell number change was 9.43%. Also, the concentration at half-maximal activity (AC50) under setting [2] was 0.411 µM [rising, partial curve, poor fit].
For the compound `Cc1cc(C(=O)COC(=O)C2=COCCO2)c(C)n1-c1cccc(F)c1`, the cell number change amounted to 67.5%. Further, the AC50 under setting [1] is 20.6 µM [rising, single point].
`CCn1c(SCC(=O)Nc2nccs2)nnc1-c1ccccc1`: the cell number change is 21.2%.
For the compound `COc1ccccc1Nc1nc(=O)[nH]nc1C`, the AC50 under setting [1] is 1.84 µM [rising, partial curve].
Turning to `COc1ccc(CNc2nc3c(c(=O)n(Cc4ccc(Br)cc4)c(=O)n3C)n2C)cc1`, the cell number change is -5.9%. Besides, the AC50 under setting [1] is 2.59 µM [rising, single point]. For the same compound, the AC50 under setting [2] is 29.1 µM [falling, partial curve, poor fit].
On to `O=C(/C=C/c1ccc2c(c1)OCO2)c1cccnc1`, for which the cell number change is -36.5%. The AC50 under setting [1] is 18.4 µM [falling, single point]. Besides, the AC50 under setting [2] is 4.11 µM [falling, full curve, poor fit].
`COc1cccc(Oc2cncnc2-c2ccc(OC)cc2O)c1`: the cell number change came to 11.1%. Moreover, the concentration at half-maximal activity (AC50) under setting [2] is 5.17 µM [rising, full curve, poor fit].
Take `C=CCc1ccc(OCCOCCNCCOC)c(OC)c1`: the cell number change stood at 23.1%. Moreover, the AC50 under setting [2] was 16.4 µM [rising, single point].
In the case of `CC(=O)N1c2ccc3ccccc3c2C(C)CC12CCCCC2` (stereo unspecified), the cell number change is -33.9%. Also, the AC50 under setting [1] was 16.4 µM [falling, single point]. For the same compound, the AC50 under setting [2] is 20.6 µM [falling, single point].
Regarding `COC(=O)CSc1nc(C(C)C)nc2ccccc12`, the cell number change is 50.3%. In addition, the AC50 under setting [1] is 29.1 µM [rising, single point].
With `O=S(=O)(Nc1nc2ccccc2nc1N1CCc2ccccc2C1)c1ccc(Cl)cc1`, the cell number change was -13.5%.
Consider `CCOc1ccc(NS(=O)(=O)c2cc(C(=O)N3CCCC3)ccc2Cl)cc1`, for which the cell number change worked out at 34.1%. Moreover, under setting [1], the AC50 is 2.31 µM [rising, full curve, poor fit].
Turning to `O=c1o[nH]c(-c2ccccc2)c1C1=NCCCCC1`, the cell number change turned out to be 3.64%. Further, the AC50 under setting [2] was 5.8 µM [rising, full curve].
For the compound `O=C(Nc1ccccc1)C1=C[C@H](c2ccc3c(c2)OCO3)C[C@H](OCCCCO)O1`, the cell number change worked out at 6.88%. In addition, under setting [2], the AC50 was 5.17 µM [rising, single point].
For the compound `Cc1ccc(-c2n[nH]c(=O)c3ccccc23)cc1S(=O)(=O)Nc1ccc(F)cc1`, the cell number change was 7.61%. Under setting [2], the AC50 was 6.51 µM [rising, single point].
As to `CCOC(=O)C1CCCN(c2c(N3CCc4ccccc4C3)c(=O)c2=O)C1` (stereo unspecified), the cell number change was 11.5%. Further, under setting [2], the half-maximal activity concentration (AC50) was 0.00411 µM [falling, full curve, poor fit].
In the case of `CCN(CC)C(=O)c1sc(NC(=O)c2ccc3c(c2)OCO3)c(C#N)c1C`, the cell number change stood at 28.3%. Moreover, under setting [1], the AC50 was 0.00411 µM [rising, full curve]. Moreover, the AC50 under setting [2] is 1.84 µM [rising, full curve, poor fit].
On to `CCc1c(C)[nH]c2c(C)cccc2c1=O`, for which the AC50 runs as follows: under setting [1], 0.92 µM [rising, full curve]; under setting [2], 1.3 µM [rising, full curve].
Regarding `O=C(NC(Cc1ccccc1)C(=O)N1CCCC1C(=O)O)c1ccccc1` (stereo not drawn) (Bz-Phe-Pro-OH; configuration not given here), the cell number change was -3.01%. The AC50 under setting [2] was 16.4 µM [rising, single point].
Regarding `COc1ccc2nc(N3CCCC(C(=O)NCCCN4C(C)CCCC4C)C3)sc2c1` (stereo unspecified), the cell number change amounted to 14.4%. Besides, the AC50 under setting [2] is 0.58 µM [rising, single point].
`Nc1ccc2c(c1)N=[N+]([O-])c1cc(N)ccc1C2`: the cell number change came to 13.3%.
As for `CSCCC(NC(=O)COc1ccccc1)C(=O)N(C)CC(=O)Nc1ccc(C)cc1` (stereo unspecified), the cell number change is 10.4%. The AC50 under setting [2] was 32.6 µM [falling, single point].
Turning to `CNC(=S)Nc1cccc(Cl)c1C`, the cell number change turned out to be 14.3%. Under setting [1], the AC50 was 0.58 µM [rising, full curve, poor fit]. In addition, the AC50 under setting [2] is 0.146 µM [rising, full curve, poor fit].
For `CC(=O)Nc1ccc(NC(=O)c2c(-c3ccccc3Cl)noc2C)cc1`, the cell number change was -22.9%. In addition, the AC50 under setting [2] was 0.184 µM [falling, full curve, poor fit].
Regarding `C=CCN(c1ccccc1)S(=O)(=O)c1cccc(C(=O)N2CCN(c3ncccn3)CC2)c1`, the cell number change is -12.7%. The AC50 under setting [2] is 29.1 µM [falling, partial curve, poor fit].
With `CCN(Cc1ccccc1)CC(O)COc1ccccc1` (stereo unspecified), the cell number change is 17.8%. Moreover, the AC50 under setting [2] is 0.58 µM [falling, partial curve, poor fit].
With `Cc1ccc(C2CN=NC23CCc2ccccc2C3=O)cc1` (stereo unspecified), the cell number change was found to be 9.79%. The AC50 under setting [2] is 23.1 µM [rising, partial curve, poor fit].
Take `O=C(c1cccs1)N1CCN(c2ncc(Br)cn2)CC1`: the cell number change is 11.2%. In addition, the AC50 under setting [2] is 6.51 µM [rising, partial curve, poor fit].
Turning to `COC(=O)c1ccc(OCC2c3cc(OC)c(OC)cc3CCN2C(C)=O)cc1` (stereo unspecified), the cell number change is -75.2%.
On to `CCOc1ccc(CNC(=O)CCCC(=O)n2nc(C)c3ccccc32)cc1`, for which the cell number change turned out to be 71.3%. The AC50 under setting [1] is 20.6 µM [rising, partial curve]. Moreover, the AC50 under setting [2] was 29.1 µM [rising, partial curve].
Consider `CC(=O)NCCOC(=O)Nc1cccnc1`, for which the cell number change is -4.22%. The AC50 under setting [2] was 0.00517 µM [falling, full curve, poor fit].
`O=C(/C=C/Sc1ccccc1)c1ccc(Cl)cc1`: the cell number change is 5.99%. For the same compound, the AC50 under setting [1] was 6.51 µM [falling, single point].
With `COc1ccc(CN(C(=O)c2ccco2)c2ccc(Br)cc2)cc1OC`, the cell number change amounted to 107%. The AC50 under setting [1] is 20.6 µM [rising, partial curve]. For the same compound, the AC50 under setting [2] is 29.1 µM [rising, single point].
As to `CCc1cccc(CC)c1NC(=O)CSc1nnc(C2CC2)n1C`, the cell number change is -6.76%. The AC50 under setting [2] is 3.26 µM [rising, full curve, poor fit].
Consider `O=C(NCc1ccncc1)c1cccc(S(=O)(=O)N2CCc3ccccc32)c1`, for which the cell number change amounted to 2%. Also, under setting [1], the AC50 is 0.517 µM [falling, partial curve, poor fit]. Also, the AC50 under setting [2] was 0.517 µM [falling, full curve].
`N#C/C(=C(/O)c1ccc([N+](=O)[O-])cc1)c1nnc2n1CCCCC2`: the cell number change is -31.1%. Moreover, the AC50 under setting [2] was 8.2 µM [falling, partial curve].
Take `Cn1c(SCc2c(F)cccc2Cl)nc2c(c1=O)SCC2`: the cell number change came to 133%.
For the compound `CCc1oc(C(=O)O)cc1COC`, the cell number change was -31.1%. In addition, under setting [1], the AC50 was 1.84 µM [falling, full curve, poor fit]. Also, under setting [2], the AC50 was 16.4 µM [falling, partial curve].
Take `CCC(C)NC(=O)CSc1nc2c(sc(=S)n2-c2cc(Cl)ccc2OC)c(=O)[nH]1` (stereo unspecified): under setting [1], the AC50 is 6.51 µM [rising, single point].
For `C#CCN1C(=O)S/C(=C/C=C/c2ccc(N(C)C)cc2)C1=O`, the cell number change was -46.9%. In addition, under setting [1], the AC50 was 25.9 µM [falling, single point]. Besides, the AC50 under setting [2] is 2.59 µM [falling, partial curve].
With `CC(C)N(C(=O)Cn1cnc2c(cnn2-c2ccccc2Cl)c1=O)C(C)C`, the cell number change came to 5.34%. Besides, the AC50 under setting [2] is 0.651 µM [falling, single point].
With `Cc1ccc(NC(=O)CSc2nc(-c3cccs3)nc3cc(=O)[nH]n23)cc1C`, the cell number change is 38.4%. In addition, the AC50 under setting [1] was 18.4 µM [rising, single point]. Moreover, under setting [2], the AC50 was 18.4 µM [rising, single point].
For `Cc1ccnc(NC(=O)CCC(=O)N(CC(=O)NCc2ccccc2)c2ccc3c(c2)OCO3)c1`, the cell number change was 25.5%. The AC50 under setting [2] is 2.31 µM [rising, partial curve].
Turning to `Cc1ccc(C)c(N2CCN(C(=O)C3CCN(c4nc(C)cc(C)n4)CC3)CC2)c1`, the cell number change is -15.9%.
As for `O=C(CCS(=O)(=O)c1ccc(Br)cc1)N1CCN(Cc2ccccc2)CC1`, the cell number change is -29.6%. Moreover, the AC50 under setting [2] was 25.9 µM [falling, partial curve, poor fit].
On to `O=[N+]([O-])c1ccc(/C=C2\CCC(C3=CCCC3)=C2N2CCOCC2)cc1`, for which the cell number change was -5.95%. Besides, the AC50 under setting [2] is 0.651 µM [rising, single point].
`C#CCOCCOCCOCCNc1nc(N2CCN(C(=O)CCCCCCCCCCNC(=O)Cn3cc(CCCCCN)nn3)CC2)nc(N2CCN(C(=O)CCCCCCCCCCNC(=O)[C@@H](CCC(=O)O)n3cc(CCCCCN)nn3)CC2)n1`: the cell number change stood at 7%. Further, the AC50 under setting [2] was 0.184 µM [falling, full curve, poor fit].
